Data as given in paper PMC12493168.
These are yes or no findings as the source states them, for the method shown. In cells and extracts the contact can be indirect. Some entries that bind do so weakly or less than the wild type.

Biological target: T1, nuclear factor erythroid 2-related factor 2 (mouse (endogenous in primary adipocytes from mouse eWAT SVF)) (UniProt Q60795)
T1 sequence: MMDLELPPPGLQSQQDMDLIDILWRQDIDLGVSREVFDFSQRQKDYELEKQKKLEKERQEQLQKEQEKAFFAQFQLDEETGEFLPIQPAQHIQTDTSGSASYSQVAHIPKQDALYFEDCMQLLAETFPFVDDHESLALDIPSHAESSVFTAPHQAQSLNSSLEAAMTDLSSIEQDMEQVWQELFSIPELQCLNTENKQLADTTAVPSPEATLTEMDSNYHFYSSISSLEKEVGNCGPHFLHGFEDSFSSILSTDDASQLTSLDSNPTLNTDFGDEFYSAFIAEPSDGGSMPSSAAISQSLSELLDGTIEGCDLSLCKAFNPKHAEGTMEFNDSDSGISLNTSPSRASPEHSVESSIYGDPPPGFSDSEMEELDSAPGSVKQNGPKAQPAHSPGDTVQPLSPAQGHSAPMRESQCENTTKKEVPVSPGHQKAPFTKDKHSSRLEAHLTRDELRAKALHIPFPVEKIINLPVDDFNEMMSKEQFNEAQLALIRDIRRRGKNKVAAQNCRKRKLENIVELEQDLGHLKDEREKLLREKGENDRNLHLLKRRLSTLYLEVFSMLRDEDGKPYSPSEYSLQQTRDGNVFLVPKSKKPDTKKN
Test: co-IP; lysate of mature adipocytes derived from WT and Serpina3c KO eWAT SVF; at least 1 mg total protein lysate, 2 µg primary antibody overnight at 4 °C, Protein A and Protein G agarose 3 h at 4 °C, washed three times, immunoblotting

B1: Serpina3c (protein, UniProt P29621 23-417)
chain: DGTLERDTLFHKDKENGTQLDSLTLASINTDFAFSLYKKLALKNPDTNIVFSPLSISAALAIVSLGAKGNTLEEILEGLNFNLTETPEADIHQGFGHLLQRLSHPGEQVQISTGSALFVEKHLQILAEFQEKARALYQAEAFTADFQQPLEATKLINDYVSNQTQRKIKGLISDLDTDTLMVLVNYIYFKGKWKMPFNPRDTFESEFYLDVKRSVKVPMMKIKTLTTPYFRDEELSCTVVELKYKGNASALFILPDQGRMQQVEASLQPETLRKWKNSLRPRKMGELYLPKFSISTDYSLKNILPELGIKEIFSKQADLSGITGTKDLIVSQMVHKAVLDVAETGTEGVAATGVNFRILSRRTSLWFNRTFLMVISHTDVQTTLFIAKITHPKRA
Q: With B1 as the binder, how does the binding read?
A: binds
